Experimental data reported in the supplement of paper PMC10849652.
This is one part of the list.

Chains of the proteins cited; added tags and fusions are not shown. Lines headed by an entry give the natural chain unless they say otherwise; changes in a name come on top.
UniProt P68036, whole entry, looked up: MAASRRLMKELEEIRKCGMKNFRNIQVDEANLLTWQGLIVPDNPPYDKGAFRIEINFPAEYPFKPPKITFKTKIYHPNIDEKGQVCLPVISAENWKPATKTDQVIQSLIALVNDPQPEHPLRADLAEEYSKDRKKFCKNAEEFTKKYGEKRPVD
UniProt Q712K3: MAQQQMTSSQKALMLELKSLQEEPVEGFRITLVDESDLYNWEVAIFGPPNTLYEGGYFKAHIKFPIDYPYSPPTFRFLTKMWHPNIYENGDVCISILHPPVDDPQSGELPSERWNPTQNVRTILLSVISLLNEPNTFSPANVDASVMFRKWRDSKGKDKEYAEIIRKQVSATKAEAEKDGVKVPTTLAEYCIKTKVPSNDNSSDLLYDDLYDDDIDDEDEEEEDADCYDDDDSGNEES
UniProt P83876: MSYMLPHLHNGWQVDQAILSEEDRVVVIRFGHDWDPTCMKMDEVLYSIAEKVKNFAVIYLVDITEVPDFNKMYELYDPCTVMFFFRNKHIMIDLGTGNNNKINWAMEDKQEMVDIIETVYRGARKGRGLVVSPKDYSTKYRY
UniProt P23258, whole entry, looked up: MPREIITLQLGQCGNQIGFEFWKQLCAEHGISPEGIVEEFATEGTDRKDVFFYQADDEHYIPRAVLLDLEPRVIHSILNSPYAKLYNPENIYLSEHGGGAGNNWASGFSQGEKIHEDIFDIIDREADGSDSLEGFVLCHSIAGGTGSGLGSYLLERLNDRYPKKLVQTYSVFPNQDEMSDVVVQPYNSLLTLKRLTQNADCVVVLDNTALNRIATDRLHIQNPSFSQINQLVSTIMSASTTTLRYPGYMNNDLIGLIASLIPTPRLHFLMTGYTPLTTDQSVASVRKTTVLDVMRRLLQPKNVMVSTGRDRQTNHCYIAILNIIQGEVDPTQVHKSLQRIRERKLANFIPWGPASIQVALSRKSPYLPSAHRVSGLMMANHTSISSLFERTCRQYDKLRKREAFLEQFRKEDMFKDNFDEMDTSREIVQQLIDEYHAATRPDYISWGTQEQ
UniProt P51965: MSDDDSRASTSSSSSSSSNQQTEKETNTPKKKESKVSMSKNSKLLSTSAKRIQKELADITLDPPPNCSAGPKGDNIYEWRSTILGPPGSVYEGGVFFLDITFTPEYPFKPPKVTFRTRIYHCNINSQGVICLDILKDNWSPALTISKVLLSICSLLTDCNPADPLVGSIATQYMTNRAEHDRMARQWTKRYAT
UniProt Q9H4B7, whole entry, looked up: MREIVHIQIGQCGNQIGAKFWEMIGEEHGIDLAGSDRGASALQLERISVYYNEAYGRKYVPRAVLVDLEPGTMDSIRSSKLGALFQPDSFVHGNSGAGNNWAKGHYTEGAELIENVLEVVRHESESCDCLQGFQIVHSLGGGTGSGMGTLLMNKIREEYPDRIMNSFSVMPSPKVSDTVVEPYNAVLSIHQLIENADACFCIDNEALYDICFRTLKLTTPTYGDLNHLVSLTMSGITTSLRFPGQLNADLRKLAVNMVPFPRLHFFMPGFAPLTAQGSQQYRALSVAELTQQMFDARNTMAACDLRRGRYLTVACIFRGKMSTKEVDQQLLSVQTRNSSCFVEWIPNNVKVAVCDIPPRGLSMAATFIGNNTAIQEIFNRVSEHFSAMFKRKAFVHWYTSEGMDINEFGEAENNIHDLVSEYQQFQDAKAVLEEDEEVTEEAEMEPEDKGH
UniProt P40222: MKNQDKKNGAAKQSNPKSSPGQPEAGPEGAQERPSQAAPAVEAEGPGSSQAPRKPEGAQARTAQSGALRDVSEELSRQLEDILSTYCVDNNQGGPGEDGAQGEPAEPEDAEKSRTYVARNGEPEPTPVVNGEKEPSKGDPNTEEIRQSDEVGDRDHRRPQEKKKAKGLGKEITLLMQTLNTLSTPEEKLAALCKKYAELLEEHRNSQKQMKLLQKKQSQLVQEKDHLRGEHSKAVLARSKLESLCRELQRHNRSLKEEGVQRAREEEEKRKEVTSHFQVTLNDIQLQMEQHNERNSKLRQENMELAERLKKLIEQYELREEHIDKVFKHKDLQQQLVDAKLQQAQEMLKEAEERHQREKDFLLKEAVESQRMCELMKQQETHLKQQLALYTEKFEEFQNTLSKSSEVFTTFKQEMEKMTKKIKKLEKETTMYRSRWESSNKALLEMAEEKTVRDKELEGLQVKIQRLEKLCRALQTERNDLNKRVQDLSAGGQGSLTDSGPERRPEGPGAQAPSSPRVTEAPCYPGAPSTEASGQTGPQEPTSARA
UniProt Q8IWV8: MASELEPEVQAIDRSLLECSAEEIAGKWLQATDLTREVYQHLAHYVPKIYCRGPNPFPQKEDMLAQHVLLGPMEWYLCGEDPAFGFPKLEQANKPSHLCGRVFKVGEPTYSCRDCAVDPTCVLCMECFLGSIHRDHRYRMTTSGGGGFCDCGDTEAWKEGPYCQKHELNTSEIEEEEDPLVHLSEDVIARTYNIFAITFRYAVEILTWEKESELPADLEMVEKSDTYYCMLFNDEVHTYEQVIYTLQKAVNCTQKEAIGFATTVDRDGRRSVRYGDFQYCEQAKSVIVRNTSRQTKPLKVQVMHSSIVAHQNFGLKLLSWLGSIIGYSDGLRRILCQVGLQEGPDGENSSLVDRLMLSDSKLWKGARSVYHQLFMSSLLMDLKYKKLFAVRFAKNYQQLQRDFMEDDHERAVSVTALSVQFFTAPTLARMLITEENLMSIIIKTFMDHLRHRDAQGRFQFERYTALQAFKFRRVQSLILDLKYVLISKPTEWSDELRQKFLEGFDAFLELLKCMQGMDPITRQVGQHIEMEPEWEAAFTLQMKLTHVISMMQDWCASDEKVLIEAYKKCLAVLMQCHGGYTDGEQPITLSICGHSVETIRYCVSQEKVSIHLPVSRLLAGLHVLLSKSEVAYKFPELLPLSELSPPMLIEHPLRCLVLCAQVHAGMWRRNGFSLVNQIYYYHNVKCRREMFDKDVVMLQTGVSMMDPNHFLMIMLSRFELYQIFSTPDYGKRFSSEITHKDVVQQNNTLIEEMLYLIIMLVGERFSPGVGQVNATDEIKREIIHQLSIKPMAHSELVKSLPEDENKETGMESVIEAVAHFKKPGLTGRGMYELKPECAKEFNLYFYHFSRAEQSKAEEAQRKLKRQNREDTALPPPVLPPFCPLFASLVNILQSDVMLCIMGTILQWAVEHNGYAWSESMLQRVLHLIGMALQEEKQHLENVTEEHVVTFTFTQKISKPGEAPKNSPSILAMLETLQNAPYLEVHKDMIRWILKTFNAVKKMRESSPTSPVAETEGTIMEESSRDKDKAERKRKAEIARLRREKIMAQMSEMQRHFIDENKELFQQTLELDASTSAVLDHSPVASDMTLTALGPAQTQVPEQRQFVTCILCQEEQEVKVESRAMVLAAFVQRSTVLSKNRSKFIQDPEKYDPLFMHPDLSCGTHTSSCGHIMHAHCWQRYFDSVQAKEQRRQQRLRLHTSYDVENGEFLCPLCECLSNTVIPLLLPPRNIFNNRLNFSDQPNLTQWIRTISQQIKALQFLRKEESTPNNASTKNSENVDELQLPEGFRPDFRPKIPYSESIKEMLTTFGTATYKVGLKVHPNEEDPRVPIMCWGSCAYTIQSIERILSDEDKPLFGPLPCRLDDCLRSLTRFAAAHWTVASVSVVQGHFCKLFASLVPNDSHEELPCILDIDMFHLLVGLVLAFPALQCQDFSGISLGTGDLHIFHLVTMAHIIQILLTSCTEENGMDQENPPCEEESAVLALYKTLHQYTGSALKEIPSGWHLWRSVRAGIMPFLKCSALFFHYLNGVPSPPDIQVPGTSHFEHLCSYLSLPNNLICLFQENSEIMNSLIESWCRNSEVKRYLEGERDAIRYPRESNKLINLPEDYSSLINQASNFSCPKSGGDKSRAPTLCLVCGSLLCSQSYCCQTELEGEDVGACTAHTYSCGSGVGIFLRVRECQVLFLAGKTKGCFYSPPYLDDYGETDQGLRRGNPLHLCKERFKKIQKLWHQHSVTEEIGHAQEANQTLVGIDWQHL
UniProt Q96CW5, whole entry, looked up: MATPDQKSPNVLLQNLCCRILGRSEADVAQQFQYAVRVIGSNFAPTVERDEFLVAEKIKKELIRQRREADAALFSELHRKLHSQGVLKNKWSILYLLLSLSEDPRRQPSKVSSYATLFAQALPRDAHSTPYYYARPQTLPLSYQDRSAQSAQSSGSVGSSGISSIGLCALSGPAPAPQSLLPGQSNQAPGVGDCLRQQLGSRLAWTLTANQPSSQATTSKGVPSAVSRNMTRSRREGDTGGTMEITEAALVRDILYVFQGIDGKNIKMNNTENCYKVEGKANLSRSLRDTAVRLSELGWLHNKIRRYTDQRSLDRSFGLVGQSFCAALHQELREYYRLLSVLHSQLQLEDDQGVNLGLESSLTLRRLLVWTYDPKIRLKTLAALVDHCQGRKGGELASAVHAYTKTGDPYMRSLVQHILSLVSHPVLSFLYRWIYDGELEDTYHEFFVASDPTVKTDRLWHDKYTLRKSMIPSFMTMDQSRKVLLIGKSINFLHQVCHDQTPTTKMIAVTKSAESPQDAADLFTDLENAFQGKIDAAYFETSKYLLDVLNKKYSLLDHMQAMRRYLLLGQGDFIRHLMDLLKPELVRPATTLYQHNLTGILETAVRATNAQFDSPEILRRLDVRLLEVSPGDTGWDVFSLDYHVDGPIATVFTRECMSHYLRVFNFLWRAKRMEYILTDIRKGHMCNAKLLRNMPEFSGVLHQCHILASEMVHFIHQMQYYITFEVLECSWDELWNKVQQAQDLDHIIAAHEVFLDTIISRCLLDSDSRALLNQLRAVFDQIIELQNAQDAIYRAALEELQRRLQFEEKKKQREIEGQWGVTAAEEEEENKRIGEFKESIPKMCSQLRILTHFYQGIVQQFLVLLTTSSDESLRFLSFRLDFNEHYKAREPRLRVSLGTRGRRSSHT
UniProt Q15819: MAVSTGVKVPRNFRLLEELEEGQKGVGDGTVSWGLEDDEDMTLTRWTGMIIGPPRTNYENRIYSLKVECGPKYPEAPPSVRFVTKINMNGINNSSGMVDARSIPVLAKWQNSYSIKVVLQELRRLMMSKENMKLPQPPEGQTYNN
UniProt O14562: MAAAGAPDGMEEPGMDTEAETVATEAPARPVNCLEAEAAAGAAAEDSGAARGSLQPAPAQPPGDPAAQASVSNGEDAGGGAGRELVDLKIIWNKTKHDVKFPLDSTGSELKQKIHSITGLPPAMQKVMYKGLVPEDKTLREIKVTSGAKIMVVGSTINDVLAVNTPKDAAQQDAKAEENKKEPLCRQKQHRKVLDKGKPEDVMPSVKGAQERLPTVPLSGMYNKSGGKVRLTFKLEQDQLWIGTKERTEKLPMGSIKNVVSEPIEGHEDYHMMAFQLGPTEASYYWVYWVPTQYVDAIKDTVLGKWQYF
UniProt Q9UHD9, whole entry, looked up: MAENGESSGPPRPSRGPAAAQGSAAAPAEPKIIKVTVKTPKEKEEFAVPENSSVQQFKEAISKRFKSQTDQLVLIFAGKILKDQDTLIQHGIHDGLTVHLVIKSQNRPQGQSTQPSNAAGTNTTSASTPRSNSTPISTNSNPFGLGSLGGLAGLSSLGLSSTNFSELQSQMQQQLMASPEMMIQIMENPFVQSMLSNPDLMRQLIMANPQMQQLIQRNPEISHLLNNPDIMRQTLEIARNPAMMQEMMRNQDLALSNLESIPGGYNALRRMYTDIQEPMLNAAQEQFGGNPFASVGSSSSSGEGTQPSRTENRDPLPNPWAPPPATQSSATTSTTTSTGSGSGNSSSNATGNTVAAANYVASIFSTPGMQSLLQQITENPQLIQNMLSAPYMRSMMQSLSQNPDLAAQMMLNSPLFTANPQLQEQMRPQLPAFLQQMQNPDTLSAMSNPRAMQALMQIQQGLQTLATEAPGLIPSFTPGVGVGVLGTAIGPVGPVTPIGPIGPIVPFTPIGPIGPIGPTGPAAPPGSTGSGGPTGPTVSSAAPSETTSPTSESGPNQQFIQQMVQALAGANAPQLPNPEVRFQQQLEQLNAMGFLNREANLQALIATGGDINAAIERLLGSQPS
UniProt P0CG48, whole entry, looked up: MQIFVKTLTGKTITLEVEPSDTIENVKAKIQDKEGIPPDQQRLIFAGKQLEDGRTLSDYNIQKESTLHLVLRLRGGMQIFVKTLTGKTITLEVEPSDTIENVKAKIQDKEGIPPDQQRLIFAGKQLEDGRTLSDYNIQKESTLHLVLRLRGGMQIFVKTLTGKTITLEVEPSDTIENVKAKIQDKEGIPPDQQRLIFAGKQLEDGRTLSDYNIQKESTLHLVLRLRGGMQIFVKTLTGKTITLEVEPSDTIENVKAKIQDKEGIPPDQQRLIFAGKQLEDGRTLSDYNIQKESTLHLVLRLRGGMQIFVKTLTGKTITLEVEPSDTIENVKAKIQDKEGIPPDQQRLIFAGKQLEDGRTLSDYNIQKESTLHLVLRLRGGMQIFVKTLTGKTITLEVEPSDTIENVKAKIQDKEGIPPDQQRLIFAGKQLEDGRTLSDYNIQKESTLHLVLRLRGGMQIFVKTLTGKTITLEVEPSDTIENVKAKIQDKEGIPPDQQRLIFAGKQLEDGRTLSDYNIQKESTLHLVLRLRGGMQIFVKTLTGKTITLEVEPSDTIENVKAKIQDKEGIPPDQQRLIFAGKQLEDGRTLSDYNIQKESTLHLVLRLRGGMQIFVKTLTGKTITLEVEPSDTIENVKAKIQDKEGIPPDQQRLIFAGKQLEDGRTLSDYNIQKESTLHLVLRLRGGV

Compound: CC[C@@H]1C(=O)N(C)c2cnc(Nc3ccc(C(=O)N[C@H]4CC[C@H](N5CCN(CC6CC6)CC5)CC4)cc3OC)nc2N1C(C)C [volasertib]
Assay: log2 fold change, soluble protein after heating vs DMSO (PISA); higher = thermal stabilisation; K562 lysate, 10 uM; active = over 0.2 and 3.5 SD of the protein, either way, in both replicates (recomputed)
Method in brief: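 Thermal stability, expressed as log-two fold change relative to solvent controls, is given from duplicates. Crude K562 extract in PBS pH 7.4 with 1 mM MgCl2, at 1 mg/mL protein, was treated with 10 μM compound for 30 min and heated in aliquots for 3 min across 48°C-58°C. After pooling, adjustment to 0.5% NP-40 at 4°C and centrifugation at 21,000xg for 90 min, supernatant protein was measured by TMTpro 16plex LC-MS/MS with channel sums equalised.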

Q: Which log2 fold change does the source give for TXN2 (UniProt Q99757) here?
A: inactive: 0.022

Q: With TWISTNB (UniProt Q3B726) as the target, how does the log2 fold change read?
A: inactive: -0.049

Q: With UBE2L3 isoform 3 (UniProt P68036) as the target, how does the log2 fold change read?
A: inactive: 0.035

Q: With UBE2R2 (UniProt Q712K3) as the target, how does the log2 fold change read?
A: inactive: 0.002

Q: How did the log2 fold change turn out when TXNL4A (UniProt P83876) was run?
A: inactive: -0.009

Q: How did the log2 fold change turn out when TXNRD1 (UniProt Q16881) was run?
A: inactive: 0.011

Q: For UBE2Q1 (UniProt Q7Z7E8), which log2 fold change is on record?
A: inactive: 0.015

Q: For TUBG1 (UniProt P23258), which log2 fold change is on record?
A: inactive: -0.044

Q: Which log2 fold change does the source give for UBE2E1 (UniProt P51965) here?
A: inactive: -0.068

Q: With UCHL3 (UniProt P15374) as the target, how does the log2 fold change read?
A: inactive: 0.01

Q: TUBB1 (UniProt Q9H4B7) was tested. Which log2 fold change did it give?
A: inactive: -0.087

Q: With UBE2I (UniProt P63279) as the target, how does the log2 fold change read?
A: inactive: 0.016

Q: How did the log2 fold change turn out when TXLNA (UniProt P40222) was run?
A: inactive: 0.011

Q: With TTN isoform 12 (UniProt Q8WZ42) as the target, how does the log2 fold change read?
A: inactive: 0.051

Q: Which log2 fold change does the source give for UBR2 isoform 4 (UniProt Q8IWV8) here?
A: inactive: -0.039

Q: TUBGCP2 isoform 4 (UniProt Q9BSJ2) was tested. Which log2 fold change did it give?
A: inactive: -0.049

Q: How did the log2 fold change turn out when TXNRD2 (UniProt Q9NNW7) was run?
A: inactive: -0.005

Q: With UAP1L1 (UniProt Q3KQV9) as the target, how does the log2 fold change read?
A: inactive: -0.097

Q: With TUT4 (UniProt Q5TAX3) as the target, how does the log2 fold change read?
A: inactive: -0.06

Q: With UCHL5 isoform 3 (UniProt Q9Y5K5) as the target, how does the log2 fold change read?
A: inactive: -0.017

Q: How did the log2 fold change turn out when TTPAL (UniProt Q9BTX7) was run?
A: inactive: 0.003

Q: For UBE2B (UniProt P63146), which log2 fold change is on record?
A: inactive: -0.03

Q: UBE4B isoform 4 (UniProt O95155) was tested. Which log2 fold change did it give?
A: inactive: -0.025

Q: With TUBGCP3 (UniProt Q96CW5) as the target, how does the log2 fold change read?
A: inactive: -0.039

Q: How did the log2 fold change turn out when TUBB (UniProt P07437) was run?
A: inactive: -0.063

Q: UBE2V2 (UniProt Q15819) was tested. Which log2 fold change did it give?
A: inactive: 0.035

Q: UBXN1 (UniProt Q04323) was tested. Which log2 fold change did it give?
A: inactive: 0.032

Q: For UBFD1 (UniProt O14562), which log2 fold change is on record?
A: inactive: 0.016

Q: How did the log2 fold change turn out when UBE2D1 (UniProt P51668) was run?
A: inactive: -0.046

Q: Which log2 fold change does the source give for UBQLN2 (UniProt Q9UHD9) here?
A: inactive: 0.001

Q: Which log2 fold change does the source give for TUFM (UniProt P49411) here?
A: inactive: -0.073

Q: With U2AF1 isoform 2 (UniProt Q01081) as the target, how does the log2 fold change read?
A: inactive: 0.01

Q: With TUBB3 (UniProt Q13509) as the target, how does the log2 fold change read?
A: inactive: -0.046

Q: For UBE2E3 (UniProt Q969T4), which log2 fold change is on record?
A: inactive: 0.016

Q: Which log2 fold change does the source give for UBC (UniProt P0CG48) here?
A: inactive: 0.035
